The assay addresses T1, leupaxin (LPXN) (human (endogenous in MV4-11, MV4-11R and OCI-AML3)) (UniProt O60711).
T1 sequence: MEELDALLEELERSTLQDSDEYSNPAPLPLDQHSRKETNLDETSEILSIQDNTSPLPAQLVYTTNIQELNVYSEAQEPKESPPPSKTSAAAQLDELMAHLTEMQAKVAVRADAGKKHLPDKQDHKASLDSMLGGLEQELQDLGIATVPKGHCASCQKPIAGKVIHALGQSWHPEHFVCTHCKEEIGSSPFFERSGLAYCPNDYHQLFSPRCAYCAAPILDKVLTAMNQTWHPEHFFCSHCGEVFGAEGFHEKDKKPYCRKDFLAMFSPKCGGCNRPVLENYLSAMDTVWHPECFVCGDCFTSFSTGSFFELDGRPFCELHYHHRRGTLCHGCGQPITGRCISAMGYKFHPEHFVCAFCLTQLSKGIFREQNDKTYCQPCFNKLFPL
Put plainly: affinity purification with mass spectrometry; co-immunoprecipitation of endogenous LPXN with two LPXN antibodies (Abcam, LSBio) on Dynabeads Protein G from MV4-11 WT, MV4-11R and OCI-AML3 cells; proteins crosslinked with 3 mM DSS for 30 min at room temperature; elution in 6 M urea buffer; IgG IP as control.

Amino acid sequences for entries named in this document (tags omitted).
UniProt Q14289: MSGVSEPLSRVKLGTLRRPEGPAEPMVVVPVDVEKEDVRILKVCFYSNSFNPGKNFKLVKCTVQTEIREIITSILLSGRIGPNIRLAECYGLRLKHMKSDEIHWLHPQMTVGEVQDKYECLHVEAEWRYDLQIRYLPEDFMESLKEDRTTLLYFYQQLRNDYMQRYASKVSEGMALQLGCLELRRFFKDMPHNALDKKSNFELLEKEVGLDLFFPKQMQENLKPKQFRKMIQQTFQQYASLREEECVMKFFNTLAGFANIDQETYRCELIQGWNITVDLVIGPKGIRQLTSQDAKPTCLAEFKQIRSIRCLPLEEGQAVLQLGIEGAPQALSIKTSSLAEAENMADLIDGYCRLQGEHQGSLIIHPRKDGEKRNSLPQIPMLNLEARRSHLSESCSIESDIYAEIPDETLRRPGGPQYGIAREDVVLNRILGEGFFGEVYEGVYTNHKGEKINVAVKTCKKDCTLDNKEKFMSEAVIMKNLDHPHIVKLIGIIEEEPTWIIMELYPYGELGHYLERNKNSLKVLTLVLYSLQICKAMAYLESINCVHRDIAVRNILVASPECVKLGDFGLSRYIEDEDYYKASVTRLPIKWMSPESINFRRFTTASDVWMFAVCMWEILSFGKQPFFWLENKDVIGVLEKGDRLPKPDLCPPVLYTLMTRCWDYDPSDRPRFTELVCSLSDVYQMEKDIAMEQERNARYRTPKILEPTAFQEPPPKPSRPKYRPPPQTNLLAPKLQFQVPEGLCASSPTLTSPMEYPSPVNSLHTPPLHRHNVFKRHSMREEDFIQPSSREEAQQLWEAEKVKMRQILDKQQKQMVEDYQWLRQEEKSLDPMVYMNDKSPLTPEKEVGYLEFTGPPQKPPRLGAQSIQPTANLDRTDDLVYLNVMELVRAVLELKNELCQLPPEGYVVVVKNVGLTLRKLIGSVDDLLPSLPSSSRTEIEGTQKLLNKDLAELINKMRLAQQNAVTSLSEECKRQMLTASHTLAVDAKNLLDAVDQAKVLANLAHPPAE
UniProt Q86UX7: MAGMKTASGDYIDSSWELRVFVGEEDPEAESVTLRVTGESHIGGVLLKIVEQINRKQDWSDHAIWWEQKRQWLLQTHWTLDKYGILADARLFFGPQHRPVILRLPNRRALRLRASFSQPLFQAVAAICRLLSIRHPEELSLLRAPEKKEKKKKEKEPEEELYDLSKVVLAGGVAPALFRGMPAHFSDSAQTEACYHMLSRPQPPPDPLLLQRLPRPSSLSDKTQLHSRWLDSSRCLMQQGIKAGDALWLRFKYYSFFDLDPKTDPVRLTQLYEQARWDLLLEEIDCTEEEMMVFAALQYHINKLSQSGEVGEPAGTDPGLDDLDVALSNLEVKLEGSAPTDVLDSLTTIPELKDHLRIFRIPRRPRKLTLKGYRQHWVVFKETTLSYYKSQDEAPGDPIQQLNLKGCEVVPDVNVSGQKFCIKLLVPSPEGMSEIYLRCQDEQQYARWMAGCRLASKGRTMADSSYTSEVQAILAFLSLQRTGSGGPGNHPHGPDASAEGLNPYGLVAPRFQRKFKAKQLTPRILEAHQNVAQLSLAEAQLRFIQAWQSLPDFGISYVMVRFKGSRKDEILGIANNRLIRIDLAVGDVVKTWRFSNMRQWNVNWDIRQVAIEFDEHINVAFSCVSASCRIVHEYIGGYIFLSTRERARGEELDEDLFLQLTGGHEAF
UniProt Q9Y490: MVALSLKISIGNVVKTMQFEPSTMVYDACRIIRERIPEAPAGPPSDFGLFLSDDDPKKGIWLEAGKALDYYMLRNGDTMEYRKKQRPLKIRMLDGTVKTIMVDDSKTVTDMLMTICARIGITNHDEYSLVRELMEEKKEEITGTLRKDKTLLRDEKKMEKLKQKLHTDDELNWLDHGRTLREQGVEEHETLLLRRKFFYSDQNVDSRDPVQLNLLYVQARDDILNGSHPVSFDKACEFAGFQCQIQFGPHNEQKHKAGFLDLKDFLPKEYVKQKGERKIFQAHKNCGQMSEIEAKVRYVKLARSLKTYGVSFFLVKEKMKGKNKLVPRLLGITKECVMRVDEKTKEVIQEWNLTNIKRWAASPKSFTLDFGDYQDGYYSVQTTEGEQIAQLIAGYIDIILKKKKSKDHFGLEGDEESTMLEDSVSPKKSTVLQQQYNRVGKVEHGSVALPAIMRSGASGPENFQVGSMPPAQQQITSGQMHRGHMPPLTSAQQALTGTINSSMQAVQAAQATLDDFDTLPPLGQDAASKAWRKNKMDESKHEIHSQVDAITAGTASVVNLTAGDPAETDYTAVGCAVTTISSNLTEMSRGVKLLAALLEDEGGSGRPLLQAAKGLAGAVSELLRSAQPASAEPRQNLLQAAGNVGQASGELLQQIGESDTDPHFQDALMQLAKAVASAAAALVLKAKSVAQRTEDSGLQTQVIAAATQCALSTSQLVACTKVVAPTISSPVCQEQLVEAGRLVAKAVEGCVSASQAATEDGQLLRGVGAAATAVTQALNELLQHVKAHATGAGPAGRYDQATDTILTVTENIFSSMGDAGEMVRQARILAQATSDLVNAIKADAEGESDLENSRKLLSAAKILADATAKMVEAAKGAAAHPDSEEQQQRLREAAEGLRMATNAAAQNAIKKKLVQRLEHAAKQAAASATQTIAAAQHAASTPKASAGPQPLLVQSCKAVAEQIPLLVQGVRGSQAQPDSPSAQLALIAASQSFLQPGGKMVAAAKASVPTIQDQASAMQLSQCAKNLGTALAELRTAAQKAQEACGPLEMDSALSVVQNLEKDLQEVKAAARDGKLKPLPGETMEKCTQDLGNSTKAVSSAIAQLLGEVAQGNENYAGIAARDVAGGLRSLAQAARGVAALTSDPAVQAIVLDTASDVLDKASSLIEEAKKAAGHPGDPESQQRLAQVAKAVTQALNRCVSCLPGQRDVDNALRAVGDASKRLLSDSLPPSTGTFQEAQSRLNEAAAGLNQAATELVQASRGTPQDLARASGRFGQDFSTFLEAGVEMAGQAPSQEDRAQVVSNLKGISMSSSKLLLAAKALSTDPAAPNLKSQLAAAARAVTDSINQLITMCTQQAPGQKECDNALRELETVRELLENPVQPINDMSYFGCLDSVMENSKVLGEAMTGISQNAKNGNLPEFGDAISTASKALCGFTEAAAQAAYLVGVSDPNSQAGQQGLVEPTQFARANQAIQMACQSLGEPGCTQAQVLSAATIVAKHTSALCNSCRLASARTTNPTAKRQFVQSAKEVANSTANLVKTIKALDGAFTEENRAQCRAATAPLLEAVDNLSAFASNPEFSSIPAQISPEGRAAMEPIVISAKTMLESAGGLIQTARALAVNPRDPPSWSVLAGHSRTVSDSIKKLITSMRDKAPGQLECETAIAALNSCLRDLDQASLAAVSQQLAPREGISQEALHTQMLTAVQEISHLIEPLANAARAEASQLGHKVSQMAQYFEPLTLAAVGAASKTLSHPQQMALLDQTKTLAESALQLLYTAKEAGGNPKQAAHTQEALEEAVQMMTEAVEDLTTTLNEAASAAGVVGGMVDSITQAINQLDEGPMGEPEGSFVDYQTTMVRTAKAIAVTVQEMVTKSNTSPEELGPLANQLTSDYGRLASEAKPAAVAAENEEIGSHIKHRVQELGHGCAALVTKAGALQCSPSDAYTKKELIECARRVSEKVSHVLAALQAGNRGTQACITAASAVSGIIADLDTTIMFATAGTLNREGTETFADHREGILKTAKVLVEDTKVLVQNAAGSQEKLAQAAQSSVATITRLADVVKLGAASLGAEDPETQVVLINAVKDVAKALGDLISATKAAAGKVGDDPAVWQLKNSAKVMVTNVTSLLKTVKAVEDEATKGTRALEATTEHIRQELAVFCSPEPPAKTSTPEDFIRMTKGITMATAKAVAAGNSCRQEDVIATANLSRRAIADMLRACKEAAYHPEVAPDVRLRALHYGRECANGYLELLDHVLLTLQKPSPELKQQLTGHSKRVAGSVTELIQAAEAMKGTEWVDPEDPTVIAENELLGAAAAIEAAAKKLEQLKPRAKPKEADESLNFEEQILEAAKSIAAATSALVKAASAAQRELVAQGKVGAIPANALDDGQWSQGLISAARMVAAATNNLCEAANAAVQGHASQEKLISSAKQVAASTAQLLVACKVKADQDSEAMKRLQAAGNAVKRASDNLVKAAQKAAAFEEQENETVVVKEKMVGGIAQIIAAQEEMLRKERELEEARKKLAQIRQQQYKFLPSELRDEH

These are yes or no findings as the source states them, for the method shown. In cells and extracts the contact can be indirect. These calls come from enrichment with a bait or labelling near it, and not all partners need be listed.

Consider “Proline-rich tyrosine kinase 2 (PTK2B/PYK2) (from UniProt Q14289 1-1009) (enzyme)”, for which the binding result was “binds”. As for “fermitin family homolog 3 (FERMT3) (from UniProt Q86UX7 1-667)”, the binding entry is recorded as “binds”.

Turning to “talin-1 (TLN1) (from UniProt Q9Y490 1-2541)”, the binding result is reported as “binds”.

(Values after paper PMC9522596.)
